Our source for the binding values is publication doi:10.1101/335273.

The chains behind the UniProt entries cited, without tags or fusion partners. A line that says so, or that is headed by a name, gives the form on record, which may keep a tag or linker. Residues count along the entry.
HCV non-structural protein 3 (NS3), JFH1, in sgJFH1-NS5A.HA replicon cells (Q99IB8, residues 1031-1661): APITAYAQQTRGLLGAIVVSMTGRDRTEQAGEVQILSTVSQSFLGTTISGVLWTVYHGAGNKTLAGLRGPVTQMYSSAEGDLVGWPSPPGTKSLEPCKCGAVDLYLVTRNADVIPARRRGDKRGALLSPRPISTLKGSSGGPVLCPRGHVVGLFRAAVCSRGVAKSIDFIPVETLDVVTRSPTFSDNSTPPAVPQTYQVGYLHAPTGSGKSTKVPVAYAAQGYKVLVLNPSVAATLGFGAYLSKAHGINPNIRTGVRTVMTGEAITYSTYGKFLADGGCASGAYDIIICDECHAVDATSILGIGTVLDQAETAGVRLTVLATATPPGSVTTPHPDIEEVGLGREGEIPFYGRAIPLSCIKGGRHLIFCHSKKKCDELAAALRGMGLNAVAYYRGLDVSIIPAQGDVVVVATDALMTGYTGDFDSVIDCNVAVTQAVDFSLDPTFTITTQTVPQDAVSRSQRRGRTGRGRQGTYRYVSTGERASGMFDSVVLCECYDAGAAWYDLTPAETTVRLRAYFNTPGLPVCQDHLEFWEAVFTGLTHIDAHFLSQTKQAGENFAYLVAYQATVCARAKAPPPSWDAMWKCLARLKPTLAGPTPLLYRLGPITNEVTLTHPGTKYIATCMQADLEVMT
HA-tagged HCV NS5A, JFH1, in sgJFH1-NS5A.HA replicon cells (Hepatitis C virus genotype 2a (JFH1)) (Q99IB8, residues 1977-2442): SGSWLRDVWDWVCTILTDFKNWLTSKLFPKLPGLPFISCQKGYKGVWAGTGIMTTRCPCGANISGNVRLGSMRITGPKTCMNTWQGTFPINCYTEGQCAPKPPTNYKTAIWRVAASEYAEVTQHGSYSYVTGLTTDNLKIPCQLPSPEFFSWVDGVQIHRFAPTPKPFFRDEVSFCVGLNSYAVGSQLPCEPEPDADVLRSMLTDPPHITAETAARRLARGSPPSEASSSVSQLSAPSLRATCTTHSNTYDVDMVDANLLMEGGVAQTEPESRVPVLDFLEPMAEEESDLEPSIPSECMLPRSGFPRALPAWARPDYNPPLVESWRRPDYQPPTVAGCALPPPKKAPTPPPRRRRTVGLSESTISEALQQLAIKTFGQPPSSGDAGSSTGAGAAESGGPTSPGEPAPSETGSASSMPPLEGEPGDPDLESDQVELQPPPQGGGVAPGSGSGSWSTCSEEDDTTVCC

The assay has as its target HA-tagged HCV NS5A, JFH1, in sgJFH1-NS5A.HA replicon cells (Hepatitis C virus genotype 2a (JFH1)) (UniProt Q99IB8). The assay is described as follows: co-IP.

These are yes or no findings as the source states them, for the method shown. Binding seen in cells or lysates may run through a third protein. Some results given as binding are weak or reduced against the parent protein; the word gives no strength.

Take “HCV non-structural protein 3 (NS3), JFH1, in sgJFH1-NS5A.HA replicon cells (from UniProt Q99IB8 1031-1661)”: the binding result is “binds”.
